System: human small airway
Test: Human precision-cut lung slices (PCLS), small airway contraction
Conditions: C-027 10^−5 M; formoterol 0.3 nM
Experimental: Human precision-cut lung slices (PCLS) permit evaluation of pharmacological responses of novel drug candidates applied directly to their target tissue.
Human precision-cut lung slices (PCLS, 250 μm thick) containing a small airway were contracted to carbachol, histamine and passively sensitization to induce airway closure±pre-incubation with ICI-735 (10 μM; 2 hours); FIG. 13. For example, human lung slices containing a small airway were incubated overnight with either negative control IgG (4 μg/mL) or positive control IgE (4 μg/mL). The slices were tested as follows: 1) IgG+anti-IgE; 2) IgE+anti-IgE; 3) IgE+Dexamethasone (1 μM)+anti-IgE; and 4) IgE+ICI-735 (10 μM) +anti-IgE. Dexamethasone and ICI-735 were pre-incubated 2 hours prior to anti-IgE; anti-IgE is used to crosslink antibodies and induce mast cell degranulation, which is believed to release histamine and cause airway contract. […]
Human lung tissue contains multiple cell types, including mast cells, that localize in the region of airway smooth muscle, and that increase in number in individuals with asthma. […]
To test C-027 as a blocker of histamine-induced bronchoconstriction, lung slices were incubated for 2 hours with C-027, and small airway contraction was evaluated after addition of increasing concentrations of histamine.

Structure (SMILES): COc1ccc(CC(C)NCC(O)c2ccc(O)c(NC=O)c2)cc1 (stereo not shown) [formoterol, reference compound]
- CCh-induced bronchoconstriction after pretreatment of lung slices: Reduced responsiveness

From patent US20100130457A1, “Phenothiazine Derivatives for Treatment of Asthma” (Immune Control, Inc., priority 2008, published 2010)
